Source: the supplement of paper PMC12823440, “Inhibitors supercharge kinase turnover through native proteolytic circuits” (Nature, 2025)
Structures can show the parent of a compound that is named as a salt. This is one part of the list. The calls rarely recur for the same compound in another form.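 Kinases, fused to nanoluciferase, were expressed in K562 cells; luminescence was measured every 4 h from 2 to 18 h as percent of control (DMSO = 100%, positive control = 0%). A time point is decreased if signal falls significantly (2 sigma). Hits were called by the authors by a rule that is not shown; the count of time points alone does not decide it.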

The chains behind the UniProt entries cited, without tags or fusion partners.
UniProt P07947, whole entry, looked up: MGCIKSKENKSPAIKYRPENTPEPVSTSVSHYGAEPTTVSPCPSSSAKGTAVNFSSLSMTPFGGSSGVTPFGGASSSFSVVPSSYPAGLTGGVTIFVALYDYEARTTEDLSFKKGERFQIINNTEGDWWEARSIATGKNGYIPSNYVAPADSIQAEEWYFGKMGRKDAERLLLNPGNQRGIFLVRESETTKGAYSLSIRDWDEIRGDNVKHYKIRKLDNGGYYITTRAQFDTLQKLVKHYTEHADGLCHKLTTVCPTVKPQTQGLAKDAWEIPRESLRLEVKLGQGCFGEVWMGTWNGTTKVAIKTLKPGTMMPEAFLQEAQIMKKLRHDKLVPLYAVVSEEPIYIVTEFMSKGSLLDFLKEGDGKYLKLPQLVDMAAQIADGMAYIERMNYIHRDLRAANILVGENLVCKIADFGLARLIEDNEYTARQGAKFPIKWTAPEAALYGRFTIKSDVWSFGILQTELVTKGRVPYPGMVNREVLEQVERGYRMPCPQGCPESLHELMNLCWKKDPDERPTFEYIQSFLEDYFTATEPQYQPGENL

Molecular target: YES1 (UniProt P07947)
Experiment: kinase-Nluc reporter destabilization hit call (1 = scored as downregulated) (binary); higher = compound decreases kinase abundance
Details: 10 µM; K562; 2-18 h

kinase-Nluc reporter destabilization hit call, inactive:
COc1ncc(F)cc1CNc1ccc(Cc2c[nH]c3ncc(C)cc23)c(F)n1 [PLX5622 (hemifumarate)] 0, C#Cc1cccc(Nc2ncnc3cc(OCCOC)c(OCCOC)cc23)c1 [Erlotinib] 0, Oc1cccc(-c2nc(N3CCOCC3)c3oc4ncccc4c3n2)c1 0, C#Cc1cccc(Nc2ncnc3cc(OCCOC)c(OCCO)cc23)c1 [Desmethyl Erlotinib (hydrochloride)] 0, C[C@@H](N)[C@H]1CC[C@H](C(=O)Nc2ccncc2)CC1 0, C#Cc1cccc(Nc2ncnc3cc4c(cc23)OCCOCCOCCO4)c1 [Icotinib] 0, C#Cc1cccc(Nc2ncnc3cc4c(cc23)OCCOCCOCCO4)c1 [Icotinib (Hydrochloride)] 0, O=C(c1ccc(F)c(F)c1Nc1ccc(I)cc1F)N1CC(O)([C@@H]2CCCCN2)C1 [Cobimetinib] 0, COc1cc2nccc(Nc3cc(OC)c(OC)c(OC)c3)c2cc1OC [GAK inhibitor 49 (hydrochloride)] 0, O=C(c1ccc(F)c(F)c1Nc1ccc(I)cc1F)N1CC(O)([C@@H]2CCCCN2)C1 [Cobimetinib (hemifumarate)] 0, C=CC(=O)Nc1cc(Nc2ncc(C(=O)OC(C)C)c(-c3cn(C)c4ccccc34)n2)c(OC)cc1N(C)CCN(C)C [Mobocertinib (succinate)] 0, CNC(=O)c1ccccc1Nc1cc(Nc2ccc(N3CCOCC3)cc2OC)ncc1C(F)(F)F [PND-1186 (hydrochloride)] 0
